Data taken from ChEMBL document CHEMBL4513149, “CO-ADD screening of MMV (CH) - MMV compounds” (2021).
The other results are listed elsewhere or left out. Potency and affinity values are given separately.

system: Acinetobacter baumannii; conditions: Concentration 20 uM; ASSAY_TEST Inhibition of Bacterial Growth; detection method Absorption (OD600); MEDIA CAMHB; plate type 384well; NBS; CORNING #3640; time 18 hr

| Compound | Inhibition |
| --- | --- |
| CCN(CC)C(=O)N1CCN(C)CC1 [DIETHYLCARBAMAZINE] | 9.65% |
| COc1cc(Br)cc2cc(C(=O)Nc3cccc(C(F)(F)F)c3)c(=O)oc12 | 11.35% |
| COC(=O)c1c(NC(=O)c2c(F)c(F)c(F)c(F)c2F)sc2c1CCCCC2 | 10.17% |
| Cc1cc(Nc2ccncc2)n2nc(C)c(-c3ccccc3Cl)c2n1 | 12.16% |
| CNc1cc(C)nc(C2CN(C(=O)c3n[nH]c4ccccc34)CCO2)c1 (stereo not given) | 18.6% |
| CCNC(=O)C(C)Nc1nc(-c2cccnc2)nc2sc(C)c(C)c12 (stereo not given) | 2.11% |
| Cc1cccc(-c2nc(Nc3ccncn3)c3sccc3n2)n1 | 3.02% |
| CS(=O)(=O)N1CCC(Cn2nc(Cc3cccc4ccccc34)c3c(N)ncnc32)CC1 | 9.09% |
| CC(C)(C)c1cc(C(=O)N2CCN(c3nccnc3C#N)CC2)n(Cc2ccccc2)n1 | 11.89% |
| Cc1ccc(S(=O)(=O)N2CCN(C(=O)c3cc(-c4ccccc4)n[nH]3)CC2)cc1 | -2.29% |
| CCOc1ccc2cc(-c3nn(C(C)(C)C)c(N)c3C(N)=O)cnc2c1.Cl | 14.53% |
| O=C(CCC1CCCCC1)Nc1cccc(-c2nnc(-c3ccco3)o2)c1 | 9.52% |
| CC(C)n1ncc2c(C(=O)NCC(c3cccs3)N3CCOCC3)cc(-c3ccccc3)nc21 (stereo not given) | 6.63% |
| COc1ccc(C2=NN(C3CCCCCC3)C(=O)[C@@H]3CC=CC[C@H]23)cc1OCCCCOc1ccc(-c2nnn[nH]2)cc1 | 4.92% |
| COc1ccc(C2=NCCN2)cc1-c1cn(-c2cccc(C3=NCCN3)c2)nn1.O=C(O)C(F)(F)F.O=C(O)C(F)(F)F | 11.69% |
| CCCn1nnc(NC(=O)COc2ccc(C3CCCCC3)cc2)n1 | 9.09% |
| Clc1cccc(CO[C@H]2CCc3ccccc3[C@@H]2n2ccnn2)c1 | -3.18% |
| CCn1ncc2c(NC3CCOCC3)c(CNC(=O)c3ccnn3C)c(C)nc21 | -4.21% |
| CC(C)C(Oc1cccc2ccccc12)C(=O)O (stereo not given) | 4.75% |
| CC1(C)Cc2c(c(N3CCOCC3)nc3snc(Br)c23)CO1 | 1.33% |

Quoted from the listing.
CCn1ncc2c(NC3CCOCC3)c(CNC(=O)c3ccnn3C)c(C)nc21 – Inhibition: -4.21%
CC(C)(C)c1cc(C(=O)N2CCN(c3nccnc3C#N)CC2)n(Cc2ccccc2)n1 – Inhibition: 11.89%
